In ChEMBL document CHEMBL4303122, “Identification of potential treatments for COVID-19 through artificial intelligence-enabled phenomic analysis of human cells infected with SARS-CoV-2” (2020) one finds Hit score data, which are given here for 65 molecules.

In all, about 1,600 compounds were measured (“Hit score”: median about 0.13, highest 2% from about 0.46 on). Some of the results follow.

This test relates to SARS-CoV-2. The test is described as follows: Antiviral activity against SARS-CoV-2 (USA-WA1/2020 strain) measured by imaging in HRCE cells at MOI 0.4 after 96 hrs (reported as hit score from 0-1 for on-disease vs off-disease activity: scores >0.6 considered hits). The class given is functional, Homo sapiens.
As for `CCCCOC(=O)c1ccccc1Nc1cccc(C(F)(F)F)c1` [UFENAMATE], the Hit score was found to be 0.06382.
Turning to `CCCC[C@H](NC(=O)[C@@H]1[C@@H]2[C@H](CN1C(=O)[C@@H](NC(=O)NC1(CS(=O)(=O)C(C)(C)C)CCCCC1)C(C)(C)C)C2(C)C)C(=O)C(=O)NC1CC1`, the Hit score stood at 0.1004.
On to `COc1ccc(C(=O)c2ccccc2)c(O)c1` [OXYBENZONE], for which the Hit score amounted to 0.4514.
Next, `CCC(C(=O)O)c1ccc(N2Cc3ccccc3C2=O)cc1` (stereo not given) [INDOBUFEN]: 0.1057.
`COc1ncnc(NS(=O)(=O)c2ccc(N)cc2)c1OC` [SULFADOXINE] had a Hit score of 0.09937.
In turn, `CCOC(=O)[C@H](CCc1ccccc1)N[C@H]1CCCN2CCC[C@@H](C(=O)O)N2C1=O` [CILAZAPRIL] showed a Hit score of 0.1586.
Take `COc1cc(C(C)=O)ccc1OCCCN1CCC(c2noc3cc(F)ccc23)CC1` [ILOPERIDONE]: the Hit score was 0.03744.
In turn, `CCOc1ccc(Cc2cc([C@]34OC[C@](CO)(O3)[C@@H](O)[C@H](O)[C@H]4O)ccc2Cl)cc1` [ERTUGLIFLOZIN] yielded a Hit score of 0.1785.
Take `C[C@]1(Cn2ccnn2)[C@H](C(=O)O)N2C(=O)C[C@H]2S1(=O)=O` [TAZOBACTAM]: the Hit score is 0.04532.
As to `CCCCC(CC)COC(=O)C=Cc1ccc(OC)cc1` (stereo not given) [OCTINOXATE], the Hit score came to 0.1108.
As for `COC(=O)N[C@H](C(=O)N1CCC[C@H]1c1ncc(-c2ccc(-c3ccc(-c4cnc([C@@H]5CCCN5C(=O)[C@@H](NC(=O)OC)C(C)C)[nH]4)cc3)cc2)[nH]1)C(C)C`, the Hit score is -0.06011.
`CCCCCCCCCCCC(=O)OCC(O)CO` (stereo not given) [GLYCEROL MONOLAURATE] showed a Hit score of 0.1728.
In the case of `CC(C(=O)O)c1cccc(C(=O)c2ccccc2)c1` (stereo not given) [KETOPROFEN], the Hit score is -0.03507.
With `CC(C)Cc1ccc(C(C)C(=O)OCc2ccccn2)cc1` (stereo not given) [IBUPROFEN PICONOL], the Hit score is recorded as 0.1126.
The molecule `CC[C@H]1CN2CC[C@H]1C[C@@H]2[C@@H](O)c1ccnc2ccc(OC)cc12` [HYDROQUINIDINE] showed a Hit score of 0.1882.
Turning to `CCOC(=O)c1ncn2c1CN(C)C(=O)c1cc(F)ccc1-2` [FLUMAZENIL], the Hit score is given as 0.1603.
`NCC(CC(=O)O)c1ccccc1` (stereo not given) [PHENIBUT]: the Hit score was 0.1202.
In turn, `CCN(CC)CCOC(=O)C(Cc1cccc2ccccc12)CC1CCCO1` (stereo not given) [NAFRONYL] displayed a Hit score of 0.1229.
The molecule `C[C@H](N)[C@H](O)c1cccc(O)c1` [METARAMINOL] yielded a Hit score of -0.08479.
`CC1=C(CC(=O)O)c2cc(F)ccc2/C1=C\c1ccc(S(C)(=O)=O)cc1` [EXISULIND] yielded a Hit score of 0.1412.
With `O=C1CN(/N=C/c2ccc([N+](=O)[O-])o2)C(=O)N1` [NITROFURANTOIN], the Hit score turned out to be 0.1622.
`Cc1ccccc1OCC(O)CO` (stereo not given) [MEPHENESIN] yielded a Hit score of 0.0981.
In the case of `O=C(O)c1ccccc1Nc1cc(Cl)ccc1C(=O)O` [LOBENZARIT] it was 0.1685; in that of `CCOC(=O)n1ccn(C)c1=S` [CARBIMAZOLE], 0.2511.
In the case of `CC(C)OC(=O)CCC/C=C\C[C@@H]1[C@@H](/C=C/[C@@H](O)COc2cccc(C(F)(F)F)c2)[C@H](O)C[C@@H]1O` [TRAVOPROST] it was 0.0267; in that of `O=C1CN(/N=C/c2ccc(-c3ccc([N+](=O)[O-])cc3)o2)C(=O)N1` [DANTROLENE], 0.0794.
Take `O=C(O)c1ccc2c(c1)nc(Nc1cccc(Cl)c1)c1ccncc12` [SILMITASERTIB]: the Hit score is given as 0.7608.
Molecule `COC(=O)N[C@H](C(=O)N1CCC[C@H]1c1nc(-c2ccc3c(c2)O[C@@H](c2ccccc2)n2c-3cc3cc(-c4c[nH]c([C@@H]5CCCN5C(=O)[C@@H](NC(=O)OC)C(C)C)n4)ccc32)c[nH]1)C(C)C` [ELBASVIR] displayed a Hit score of -0.03781.
Regarding `CCNC(=O)CCC/C=C\C[C@@H]1[C@@H](/C=C/[C@@H](O)CCc2ccccc2)[C@H](O)C[C@@H]1O` [BIMATOPROST], the Hit score was found to be 0.186.
Next, `COC(=O)C1=C(C)NC(C)=C(C(=O)OC2CCCN(Cc3ccccc3)C2)C1c1cccc([N+](=O)[O-])c1` (stereo not given) [BENIDIPINE]: 0.1919.
Consider `O=C(CCCCCCC(=O)Nc1ccccc1)NO` [VORINOSTAT], for which the Hit score is -0.06059.
`CCCN[C@@H]1CCc2nc(N)sc2C1` [DEXPRAMIPEXOLE] registered a Hit score of 0.07275.
For the molecule `CNC[C@H](O)[C@@H](O)[C@H](O)[C@H](O)CO.Cc1c(Nc2ncccc2C(=O)O)cccc1C(F)(F)F` [FLUNIXIN MEGLUMINE], the Hit score is given as 0.2448.
As for `CO/N=C(\C(=O)N[C@@H]1C(=O)N2C(C(=O)[O-])=C(C[n+]3cccc4c3CCC4)CS[C@H]12)c1csc(N)n1` [CEFPIROME], the Hit score is given as 0.1204.
In turn, `Oc1cc(O)cc(O)c1` [PHLOROGLUCINOL] showed a Hit score of 0.06366.
Next, `CC#C[C@]1(O)CC[C@H]2[C@@H]3CCC4=CC(=O)CCC4=C3[C@@H](c3ccc(N(C)C)cc3)C[C@@]21C` [MIFEPRISTONE]: 0.07581; `CC(=O)OCC(=O)[C@@]1(O)CC[C@H]2[C@@H]3CCC4=CC(=O)CC[C@]4(C)[C@H]3[C@@H](O)C[C@@]21C` [HYDROCORTISONE ACETATE]: 0.1773; `CN1CC(O)C2=C/C(=N/NC(N)=O)C(=O)C=C21` (stereo not given) [CARBAZOCHROME]: 0.2804.
`Nc1c2c(nc3ccccc13)CCCC2` [TACRINE] came in with a Hit score of -0.07444.
`CCCCC(CC)COC(=O)C(C#N)=C(c1ccccc1)c1ccccc1` (stereo not given) [OCTOCRYLENE] registered a Hit score of 0.1632.
Take `COc1cc2/c(=N/c3ccc(Br)cc3F)nc[nH]c2cc1OCC1CCN(C)CC1` [VANDETANIB]: the Hit score is reported as 0.2198.
`C/C(=C(\CCOP(=O)(O)O)SC(=O)c1ccccc1)N(C=O)Cc1cnc(C)nc1N` [BENFOTIAMINE] registered a Hit score of 0.08383.
Turning to `CC(C)C(=O)OCC(=O)[C@@]12O[C@H](C3CCCCC3)O[C@@H]1C[C@H]1[C@@H]3CCC4=CC(=O)C=C[C@]4(C)[C@H]3[C@@H](O)C[C@@]12C` [CICLESONIDE], the Hit score is listed as 0.2519.
As to `CCN(CC)C(=S)SSC(=S)N(CC)CC`, the Hit score turned out to be 0.2116.
In the case of `O=C(CCCN1CCN(c2ccccn2)CC1)c1ccc(F)cc1` [AZAPERONE] it was 0.2437.
`CCc1ccc(Cc2ccc3c(c2)[C@]2(OC3)O[C@H](CO)[C@@H](O)[C@H](O)[C@H]2O)cc1.O` [TOFOGLIFLOZIN] showed a Hit score of -0.02965.
Next, `CC1CC(OC(=O)c2ccccc2O)CC(C)(C)C1` (stereo not given) [HOMOSALATE]: 0.04745; `COC(=O)C1=C(C#N)NC(C)=C(C(=O)OC(C)C)C1c1cccc([N+](=O)[O-])c1` (stereo not given) [NILVADIPINE]: 0.06379; `COCCCN1CCC(NC(=O)c2cc(Cl)c(N)c3c2OCC3)CC1` [PRUCALOPRIDE]: 0.06391.
In the case of `CC(C)CC(N(C)C)C1(c2ccc(Cl)cc2)CCC1` (stereo not given) [SIBUTRAMINE] it was 0.2623; in that of `N[C@@H](Cc1cc(I)c(Oc2ccc(O)c(I)c2)c(I)c1)C(=O)O` [LIOTHYRONINE], 0.01634.
Take `CC[C@]1(O)C[C@@H]2CN(CCc3c([nH]c4ccccc34)[C@@](C(=O)OC)(c3cc4c(cc3OC)N(C)[C@H]3[C@@](O)(C(=O)OC)[C@H](OC(C)=O)[C@]5(CC)C=CCN6CC[C@]43[C@@H]65)C2)C1` [VINBLASTINE]: the Hit score amounted to 0.2235.
For the molecule `C[C@H](/C=C/[C@H](C)C(C)(C)O)[C@H]1CC[C@H]2/C(=C/C=C3C[C@@H](O)C[C@H](O)C3)CCC[C@]12C` [PARICALCITOL], the Hit score worked out at 0.5764.
`Cc1ccc(=O)n(-c2ccccc2)c1` [PIRFENIDONE] had a Hit score of 0.263.
`CN1CCC(=C2c3ccccc3Sc3ccccc32)CC1` [PIMETHIXENE] showed a Hit score of 0.1216.
`CC(C)(C)NC(=O)N[C@H](C(=O)N1C[C@H]2[C@@H]([C@H]1C(=O)NC(CC1CCC1)C(=O)C(N)=O)C2(C)C)C(C)(C)C` (stereo not given in full) [BOCEPREVIR] registered a Hit score of 0.1287.
In the case of `O=c1[nH]c2ccccc2n1CCCN1CCN(C(c2ccccc2)c2ccccc2)CC1` [OXATOMIDE], the Hit score is given as -0.02938.
`CC(C)[N+](C)(CCC(C(N)=O)(c1ccccc1)c1ccccc1)C(C)C` [ISOPROPAMIDE] gave a Hit score of 0.2678.
In turn, `CC(=O)OCC1=C(C(=O)O)N2C(=O)[C@@H](NC(=O)CSc3ccncc3)[C@H]2SC1.CC(=O)OCC1=C(C(=O)O)N2C(=O)[C@@H](NC(=O)CSc3ccncc3)[C@H]2SC1.c1ccc(CNCCNCc2ccccc2)cc1` [CEPHAPIRIN BENZATHINE] registered a Hit score of 0.1882.
`CC(=O)[C@@]1(O)CC[C@H]2[C@@H]3CCC4=CC(=O)CCC4=C3[C@@H](c3ccc(N(C)C)cc3)C[C@@]21C` [ULIPRISTAL]: the Hit score stood at 0.1448.
`O=C(O)c1ccccc1C(=O)Nc1ccc(S(=O)(=O)Nc2nccs2)cc1` [PHTHALYLSULFATHIAZOLE] showed a Hit score of 0.0541.
In turn, `O=c1[nH]c2ccccc2n1CCCN1CCC(n2c(=O)[nH]c3cc(Cl)ccc32)CC1` [DOMPERIDONE] gave a Hit score of 0.1608.
`OCCN(CCO)c1nc(N2CCCCC2)c2nc(N(CCO)CCO)nc(N3CCCCC3)c2n1` [DIPYRIDAMOLE] had a Hit score of 0.178.
As to `CC/C=C(\C(=O)N[C@@H]1C(=O)N2C(C(=O)OCOC(=O)C(C)(C)C)=C(COC(N)=O)CS[C@H]12)c1csc(N)n1.Cl.O`, the Hit score was 0.1129.
Regarding `CN1CCN(C(c2ccccc2)c2ccccc2)CC1` [CYCLIZINE], the Hit score was 0.1379.
